Measured values as given in paper PMC8910062.

Amino acid sequences for entries named in this document (tags omitted). A change or cut given only in a name is not applied to a line headed by its entry. Chains listed by the source or under a name are the forms on record and can include a tag or linker. Residues count along the entry.
UniProt P13569: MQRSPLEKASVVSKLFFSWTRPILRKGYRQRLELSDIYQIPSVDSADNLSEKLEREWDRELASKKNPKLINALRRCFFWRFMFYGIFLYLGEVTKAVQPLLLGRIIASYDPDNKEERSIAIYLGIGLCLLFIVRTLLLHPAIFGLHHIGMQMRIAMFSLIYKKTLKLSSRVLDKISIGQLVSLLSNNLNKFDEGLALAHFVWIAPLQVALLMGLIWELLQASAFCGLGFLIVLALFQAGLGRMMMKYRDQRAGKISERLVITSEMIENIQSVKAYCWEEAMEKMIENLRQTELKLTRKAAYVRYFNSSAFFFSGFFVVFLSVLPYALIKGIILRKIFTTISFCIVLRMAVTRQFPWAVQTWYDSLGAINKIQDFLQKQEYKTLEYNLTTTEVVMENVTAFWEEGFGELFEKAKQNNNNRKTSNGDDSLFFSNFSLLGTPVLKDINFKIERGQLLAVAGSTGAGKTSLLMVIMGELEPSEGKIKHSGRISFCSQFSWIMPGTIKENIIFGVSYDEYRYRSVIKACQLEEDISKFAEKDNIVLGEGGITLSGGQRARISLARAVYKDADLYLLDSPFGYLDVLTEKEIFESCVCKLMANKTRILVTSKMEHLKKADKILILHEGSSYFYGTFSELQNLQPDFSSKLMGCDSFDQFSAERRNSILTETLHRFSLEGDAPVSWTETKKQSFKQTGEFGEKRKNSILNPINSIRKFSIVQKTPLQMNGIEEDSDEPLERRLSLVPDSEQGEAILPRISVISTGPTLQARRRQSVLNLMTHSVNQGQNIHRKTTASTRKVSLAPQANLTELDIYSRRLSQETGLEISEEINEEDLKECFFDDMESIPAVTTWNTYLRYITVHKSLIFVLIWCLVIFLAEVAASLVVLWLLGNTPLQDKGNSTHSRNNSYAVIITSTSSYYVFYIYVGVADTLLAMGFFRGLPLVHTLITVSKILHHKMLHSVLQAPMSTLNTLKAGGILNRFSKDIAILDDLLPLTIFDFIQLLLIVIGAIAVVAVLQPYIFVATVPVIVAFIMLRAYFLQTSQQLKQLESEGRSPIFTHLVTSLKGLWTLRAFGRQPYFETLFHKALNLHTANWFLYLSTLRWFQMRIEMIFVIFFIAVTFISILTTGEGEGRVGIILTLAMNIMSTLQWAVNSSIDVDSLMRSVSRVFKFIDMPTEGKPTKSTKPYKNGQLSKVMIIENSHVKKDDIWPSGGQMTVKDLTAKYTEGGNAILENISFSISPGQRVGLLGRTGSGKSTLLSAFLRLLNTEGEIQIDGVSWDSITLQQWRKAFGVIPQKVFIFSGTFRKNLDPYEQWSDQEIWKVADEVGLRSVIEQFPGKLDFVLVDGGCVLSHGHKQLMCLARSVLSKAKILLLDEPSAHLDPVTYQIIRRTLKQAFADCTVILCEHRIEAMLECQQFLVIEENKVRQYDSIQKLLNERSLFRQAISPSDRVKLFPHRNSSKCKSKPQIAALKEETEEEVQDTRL
FLAG-BirA*-∆F508-CFTR (P13569, form named): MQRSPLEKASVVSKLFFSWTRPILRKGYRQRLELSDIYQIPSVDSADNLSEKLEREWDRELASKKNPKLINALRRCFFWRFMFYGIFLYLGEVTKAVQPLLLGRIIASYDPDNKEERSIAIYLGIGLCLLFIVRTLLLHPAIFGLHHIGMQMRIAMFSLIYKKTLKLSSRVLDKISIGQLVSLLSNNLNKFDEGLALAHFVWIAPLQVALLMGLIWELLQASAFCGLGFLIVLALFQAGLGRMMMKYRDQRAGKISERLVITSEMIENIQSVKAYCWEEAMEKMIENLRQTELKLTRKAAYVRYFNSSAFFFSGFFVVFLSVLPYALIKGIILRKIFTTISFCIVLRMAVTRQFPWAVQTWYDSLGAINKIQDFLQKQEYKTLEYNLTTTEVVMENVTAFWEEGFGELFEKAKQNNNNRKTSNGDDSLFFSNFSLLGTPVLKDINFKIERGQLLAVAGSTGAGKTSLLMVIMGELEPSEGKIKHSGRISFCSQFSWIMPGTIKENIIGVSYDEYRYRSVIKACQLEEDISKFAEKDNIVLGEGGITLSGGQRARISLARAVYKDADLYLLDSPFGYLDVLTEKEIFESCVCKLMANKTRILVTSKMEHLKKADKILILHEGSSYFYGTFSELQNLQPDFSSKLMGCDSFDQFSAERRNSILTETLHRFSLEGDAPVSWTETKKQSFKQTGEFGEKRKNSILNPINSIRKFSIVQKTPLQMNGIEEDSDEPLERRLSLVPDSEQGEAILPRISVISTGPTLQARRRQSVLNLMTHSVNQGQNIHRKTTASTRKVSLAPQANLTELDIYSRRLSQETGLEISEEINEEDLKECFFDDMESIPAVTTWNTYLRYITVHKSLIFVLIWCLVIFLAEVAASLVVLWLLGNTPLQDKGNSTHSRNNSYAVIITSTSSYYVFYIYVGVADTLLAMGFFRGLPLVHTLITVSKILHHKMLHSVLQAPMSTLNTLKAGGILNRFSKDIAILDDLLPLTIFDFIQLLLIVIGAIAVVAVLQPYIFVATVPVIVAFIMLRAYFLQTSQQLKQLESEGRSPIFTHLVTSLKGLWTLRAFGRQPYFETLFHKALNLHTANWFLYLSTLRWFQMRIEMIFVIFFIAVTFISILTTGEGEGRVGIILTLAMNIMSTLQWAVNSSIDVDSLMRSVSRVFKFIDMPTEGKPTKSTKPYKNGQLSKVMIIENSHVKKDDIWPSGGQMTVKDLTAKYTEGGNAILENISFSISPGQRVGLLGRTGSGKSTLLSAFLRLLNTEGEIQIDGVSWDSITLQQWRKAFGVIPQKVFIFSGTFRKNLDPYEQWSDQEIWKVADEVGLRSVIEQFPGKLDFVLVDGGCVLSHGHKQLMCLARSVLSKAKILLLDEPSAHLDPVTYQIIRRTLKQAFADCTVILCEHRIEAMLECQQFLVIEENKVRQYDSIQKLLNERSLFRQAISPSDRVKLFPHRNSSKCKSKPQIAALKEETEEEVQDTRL
UniProt O43852, residues 20-315: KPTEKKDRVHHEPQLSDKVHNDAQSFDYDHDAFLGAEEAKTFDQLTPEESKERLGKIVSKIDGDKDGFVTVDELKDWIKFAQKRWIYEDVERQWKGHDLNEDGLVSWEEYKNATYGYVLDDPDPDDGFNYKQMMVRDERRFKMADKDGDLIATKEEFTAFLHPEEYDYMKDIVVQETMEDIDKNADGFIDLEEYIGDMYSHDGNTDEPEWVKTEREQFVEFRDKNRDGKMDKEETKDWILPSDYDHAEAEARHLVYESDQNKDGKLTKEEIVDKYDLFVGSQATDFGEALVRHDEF
UniProt O00161: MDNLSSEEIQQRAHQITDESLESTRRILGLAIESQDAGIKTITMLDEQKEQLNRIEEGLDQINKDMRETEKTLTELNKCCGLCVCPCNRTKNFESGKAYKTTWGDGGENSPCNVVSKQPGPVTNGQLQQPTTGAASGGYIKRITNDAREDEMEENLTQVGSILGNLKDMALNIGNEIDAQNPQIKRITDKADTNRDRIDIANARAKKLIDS
UniProt O95292: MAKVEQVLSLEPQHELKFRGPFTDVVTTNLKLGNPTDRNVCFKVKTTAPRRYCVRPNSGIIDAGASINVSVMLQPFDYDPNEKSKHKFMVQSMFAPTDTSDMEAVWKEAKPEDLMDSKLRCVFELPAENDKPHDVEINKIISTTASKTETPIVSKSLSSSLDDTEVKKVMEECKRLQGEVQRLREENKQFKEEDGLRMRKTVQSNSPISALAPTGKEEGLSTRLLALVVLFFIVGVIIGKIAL
UniProt Q9UNE7: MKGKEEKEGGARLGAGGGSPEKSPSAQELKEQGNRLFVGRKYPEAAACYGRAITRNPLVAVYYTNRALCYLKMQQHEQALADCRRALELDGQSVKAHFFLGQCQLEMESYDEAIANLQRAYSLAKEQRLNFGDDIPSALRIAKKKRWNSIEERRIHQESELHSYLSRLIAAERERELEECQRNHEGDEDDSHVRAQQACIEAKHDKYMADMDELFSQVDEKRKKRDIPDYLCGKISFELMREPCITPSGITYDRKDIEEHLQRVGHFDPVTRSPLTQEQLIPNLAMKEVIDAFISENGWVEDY
UniProt Q00610: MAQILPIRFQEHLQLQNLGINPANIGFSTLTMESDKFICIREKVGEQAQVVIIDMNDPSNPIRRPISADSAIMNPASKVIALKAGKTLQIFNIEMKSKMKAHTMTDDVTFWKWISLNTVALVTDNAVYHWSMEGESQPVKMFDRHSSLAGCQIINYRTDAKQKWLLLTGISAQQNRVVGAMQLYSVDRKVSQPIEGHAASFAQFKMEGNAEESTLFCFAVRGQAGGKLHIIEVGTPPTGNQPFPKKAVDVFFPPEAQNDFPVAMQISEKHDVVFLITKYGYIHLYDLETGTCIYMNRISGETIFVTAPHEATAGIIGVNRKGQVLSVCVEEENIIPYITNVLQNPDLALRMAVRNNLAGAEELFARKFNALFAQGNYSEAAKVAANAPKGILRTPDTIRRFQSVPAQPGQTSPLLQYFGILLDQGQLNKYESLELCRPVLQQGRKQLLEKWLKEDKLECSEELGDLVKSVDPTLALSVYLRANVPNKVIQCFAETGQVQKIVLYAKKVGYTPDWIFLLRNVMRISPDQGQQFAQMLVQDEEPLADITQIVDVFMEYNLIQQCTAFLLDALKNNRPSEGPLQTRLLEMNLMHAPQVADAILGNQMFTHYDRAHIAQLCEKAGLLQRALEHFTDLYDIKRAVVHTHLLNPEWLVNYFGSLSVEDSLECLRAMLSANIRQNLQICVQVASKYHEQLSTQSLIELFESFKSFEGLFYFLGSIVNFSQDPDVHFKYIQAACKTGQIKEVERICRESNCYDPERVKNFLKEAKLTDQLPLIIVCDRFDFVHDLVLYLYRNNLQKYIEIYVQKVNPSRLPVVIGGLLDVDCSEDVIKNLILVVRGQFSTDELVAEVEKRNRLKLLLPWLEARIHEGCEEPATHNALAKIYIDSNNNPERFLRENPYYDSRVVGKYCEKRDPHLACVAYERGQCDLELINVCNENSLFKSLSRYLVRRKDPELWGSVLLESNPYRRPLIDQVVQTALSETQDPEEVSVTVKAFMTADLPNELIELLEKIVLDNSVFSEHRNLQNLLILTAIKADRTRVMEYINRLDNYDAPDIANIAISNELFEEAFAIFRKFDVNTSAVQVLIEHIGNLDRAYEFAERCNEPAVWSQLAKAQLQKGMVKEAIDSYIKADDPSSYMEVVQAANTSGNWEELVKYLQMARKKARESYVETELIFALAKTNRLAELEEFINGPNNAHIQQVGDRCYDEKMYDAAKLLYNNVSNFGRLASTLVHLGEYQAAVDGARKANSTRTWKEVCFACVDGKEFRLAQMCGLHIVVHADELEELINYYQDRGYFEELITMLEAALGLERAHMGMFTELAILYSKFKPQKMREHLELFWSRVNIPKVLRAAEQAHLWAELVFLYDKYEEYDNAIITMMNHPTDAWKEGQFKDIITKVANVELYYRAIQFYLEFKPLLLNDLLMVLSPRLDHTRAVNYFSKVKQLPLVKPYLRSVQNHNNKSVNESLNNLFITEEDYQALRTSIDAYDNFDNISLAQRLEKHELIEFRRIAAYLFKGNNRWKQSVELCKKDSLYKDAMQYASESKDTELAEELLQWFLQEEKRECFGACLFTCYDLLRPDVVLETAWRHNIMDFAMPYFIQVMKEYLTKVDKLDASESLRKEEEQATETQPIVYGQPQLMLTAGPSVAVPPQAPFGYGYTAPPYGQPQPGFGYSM

Assays:
[1] = molecular target: FLAG-BirA*-∆F508-CFTR (UniProt P13569); assay: proximity labelling; BioID in living HEK293 Flp-In T-REx cells: FLAG-BirA*-CFTR or FLAG-BirA*-∆F508-CFTR bait induced with 1 µg/mL tetracycline, 50 µM biotin; biotinylated preys captured on streptavidin beads and identified by mass spectrometry; SAINT against FlagBirA* alone, BFDR ≤ 0.01; WT in vehicle (0.1% DMSO); ∆F508 in vehicle or Orkambi (3 µM VX-809 + 1 µM VX-770), with or without MG132
[2] = molecular target: FLAG-BirA*-CFTR (wild type Cystic Fibrosis Transmembrane Conductance Regulator) (UniProt P13569); assay: as above

Molecule	binding [1]	binding [2]
Calumenin (CALU) (from UniProt O43852 20-315)	binds	binds
Synaptosome Associated Protein 23 (SNAP23) (from UniProt O00161 1-211)	binds	binds
VAMP-Associated Protein B (VAPB) (from UniProt O95292 1-243)	binds	binds
STIP1 Homology and U-Box Containing Protein 1 (STUB1) (from UniProt Q9UNE7 1-303)	binds	binds
CLTC (from UniProt Q00610 1-1675)	binds	binds
syntaxin 6 (STX6) (protein, UniProt O43752 1-255) MSMEDPFFVVKGEVQKAVNTAQGLFQRWTELLQDPSTATREEIDWTTNELRNNLRSIEWDLEDLDETISIVEANPRKFNLDATELSIRKAFITSTRQVVRDMKDQMSTSSVQALAERKNRQALLGDSGSQNWSTGTTDKYGRLDRELQRANSHFIEEQQAQQQLIVEQQDEQLELVSGSIGVLKNMSQRIGGELEEQAVMLEDFSHELESTQSRLDNVMKKLAKVSHMTSDRRQWCAIAILFAVLLVVLILFLVL	binds	binds
Ubiquitin Specific Peptidase 19 (USP19) (protein, UniProt O94966 1-1318) MSGGASATGPRRGPPGLEDTTSKKKQKDRANQESKDGDPRKETGSRYVAQAGLEPLASGDPSASASHAAGITGSRHRTRLFFPSSSGSASTPQEEQTKEGACEDPHDLLATPTPELLLDWRQSAEEVIVKLRVGVGPLQLEDVDAAFTDTDCVVRFAGGQQWGGVFYAEIKSSCAKVQTRKGSLLHLTLPKKVPMLTWPSLLVEADEQLCIPPLNSQTCLLGSEENLAPLAGEKAVPPGNDPVSPAMVRSRNPGKDDCAKEEMAVAADAATLVDEPESMVNLAFVKNDSYEKGPDSVVVHVYVKEICRDTSRVLFREQDFTLIFQTRDGNFLRLHPGCGPHTTFRWQVKLRNLIEPEQCTFCFTASRIDICLRKRQSQRWGGLEAPAARVGGAKVAVPTGPTPLDSTPPGGAPHPLTGQEEARAVEKDKSKARSEDTGLDSVATRTPMEHVTPKPETHLASPKPTCMVPPMPHSPVSGDSVEEEEEEEKKVCLPGFTGLVNLGNTCFMNSVIQSLSNTRELRDFFHDRSFEAEINYNNPLGTGGRLAIGFAVLLRALWKGTHHAFQPSKLKAIVASKASQFTGYAQHDAQEFMAFLLDGLHEDLNRIQNKPYTETVDSDGRPDEVVAEEAWQRHKMRNDSFIVDLFQGQYKSKLVCPVCAKVSITFDPFLYLPVPLPQKQKVLPVFYFAREPHSKPIKFLVSVSKENSTASEVLDSLSQSVHVKPENLRLAEVIKNRFHRVFLPSHSLDTVSPSDTLLCFELLSSELAKERVVVLEVQQRPQVPSVPISKCAACQRKQQSEDEKLKRCTRCYRVGYCNQLCQKTHWPDHKGLCRPENIGYPFLVSVPASRLTYARLAQLLEGYARYSVSVFQPPFQPGRMALESQSPGCTTLLSTGSLEAGDSERDPIQPPELQLVTPMAEGDTGLPRVWAAPDRGPVPSTSGISSEMLASGPIEVGSLPAGERVSRPEAAVPGYQHPSEAMNAHTPQFFIYKIDSSNREQRLEDKGDTPLELGDDCSLALVWRNNERLQEFVLVASKELECAEDPGSAGEAARAGHFTLDQCLNLFTRPEVLAPEEAWYCPQCKQHREASKQLLLWRLPNVLIVQLKRFSFRSFIWRDKINDLVEFPVRNLDLSKFCIGQKEEQLPSYDLYAVINHYGGMIGGHYTACARLPNDRSSQRSDVGWRLFDDSTVTTVDESQVVTRYAYVLFYRRRNSPVERPPRAGHSEHHPDLGPAAEAAASQASRIWQELEAEEEPVPEGSGPLGPWGPQDWVGPLPRGPTTPDEGCLRYFVLGTVAALVALVLNVFYPLVSQSRWR	–	binds

These are yes or no findings as the source states them, for the method shown. Binding seen in cells or lysates may run through a third protein. Here binding means that the protein was enriched with, or labelled near, the bait; the list need not be complete.
